# Laboratory results as given in PubChem BioAssay AID2662 (National Center for Advancing Translational Sciences (NCATS), 2010).
# Amino acid sequences for entries named in this document (tags omitted).
# UniProt Q03164, whole entry, looked up: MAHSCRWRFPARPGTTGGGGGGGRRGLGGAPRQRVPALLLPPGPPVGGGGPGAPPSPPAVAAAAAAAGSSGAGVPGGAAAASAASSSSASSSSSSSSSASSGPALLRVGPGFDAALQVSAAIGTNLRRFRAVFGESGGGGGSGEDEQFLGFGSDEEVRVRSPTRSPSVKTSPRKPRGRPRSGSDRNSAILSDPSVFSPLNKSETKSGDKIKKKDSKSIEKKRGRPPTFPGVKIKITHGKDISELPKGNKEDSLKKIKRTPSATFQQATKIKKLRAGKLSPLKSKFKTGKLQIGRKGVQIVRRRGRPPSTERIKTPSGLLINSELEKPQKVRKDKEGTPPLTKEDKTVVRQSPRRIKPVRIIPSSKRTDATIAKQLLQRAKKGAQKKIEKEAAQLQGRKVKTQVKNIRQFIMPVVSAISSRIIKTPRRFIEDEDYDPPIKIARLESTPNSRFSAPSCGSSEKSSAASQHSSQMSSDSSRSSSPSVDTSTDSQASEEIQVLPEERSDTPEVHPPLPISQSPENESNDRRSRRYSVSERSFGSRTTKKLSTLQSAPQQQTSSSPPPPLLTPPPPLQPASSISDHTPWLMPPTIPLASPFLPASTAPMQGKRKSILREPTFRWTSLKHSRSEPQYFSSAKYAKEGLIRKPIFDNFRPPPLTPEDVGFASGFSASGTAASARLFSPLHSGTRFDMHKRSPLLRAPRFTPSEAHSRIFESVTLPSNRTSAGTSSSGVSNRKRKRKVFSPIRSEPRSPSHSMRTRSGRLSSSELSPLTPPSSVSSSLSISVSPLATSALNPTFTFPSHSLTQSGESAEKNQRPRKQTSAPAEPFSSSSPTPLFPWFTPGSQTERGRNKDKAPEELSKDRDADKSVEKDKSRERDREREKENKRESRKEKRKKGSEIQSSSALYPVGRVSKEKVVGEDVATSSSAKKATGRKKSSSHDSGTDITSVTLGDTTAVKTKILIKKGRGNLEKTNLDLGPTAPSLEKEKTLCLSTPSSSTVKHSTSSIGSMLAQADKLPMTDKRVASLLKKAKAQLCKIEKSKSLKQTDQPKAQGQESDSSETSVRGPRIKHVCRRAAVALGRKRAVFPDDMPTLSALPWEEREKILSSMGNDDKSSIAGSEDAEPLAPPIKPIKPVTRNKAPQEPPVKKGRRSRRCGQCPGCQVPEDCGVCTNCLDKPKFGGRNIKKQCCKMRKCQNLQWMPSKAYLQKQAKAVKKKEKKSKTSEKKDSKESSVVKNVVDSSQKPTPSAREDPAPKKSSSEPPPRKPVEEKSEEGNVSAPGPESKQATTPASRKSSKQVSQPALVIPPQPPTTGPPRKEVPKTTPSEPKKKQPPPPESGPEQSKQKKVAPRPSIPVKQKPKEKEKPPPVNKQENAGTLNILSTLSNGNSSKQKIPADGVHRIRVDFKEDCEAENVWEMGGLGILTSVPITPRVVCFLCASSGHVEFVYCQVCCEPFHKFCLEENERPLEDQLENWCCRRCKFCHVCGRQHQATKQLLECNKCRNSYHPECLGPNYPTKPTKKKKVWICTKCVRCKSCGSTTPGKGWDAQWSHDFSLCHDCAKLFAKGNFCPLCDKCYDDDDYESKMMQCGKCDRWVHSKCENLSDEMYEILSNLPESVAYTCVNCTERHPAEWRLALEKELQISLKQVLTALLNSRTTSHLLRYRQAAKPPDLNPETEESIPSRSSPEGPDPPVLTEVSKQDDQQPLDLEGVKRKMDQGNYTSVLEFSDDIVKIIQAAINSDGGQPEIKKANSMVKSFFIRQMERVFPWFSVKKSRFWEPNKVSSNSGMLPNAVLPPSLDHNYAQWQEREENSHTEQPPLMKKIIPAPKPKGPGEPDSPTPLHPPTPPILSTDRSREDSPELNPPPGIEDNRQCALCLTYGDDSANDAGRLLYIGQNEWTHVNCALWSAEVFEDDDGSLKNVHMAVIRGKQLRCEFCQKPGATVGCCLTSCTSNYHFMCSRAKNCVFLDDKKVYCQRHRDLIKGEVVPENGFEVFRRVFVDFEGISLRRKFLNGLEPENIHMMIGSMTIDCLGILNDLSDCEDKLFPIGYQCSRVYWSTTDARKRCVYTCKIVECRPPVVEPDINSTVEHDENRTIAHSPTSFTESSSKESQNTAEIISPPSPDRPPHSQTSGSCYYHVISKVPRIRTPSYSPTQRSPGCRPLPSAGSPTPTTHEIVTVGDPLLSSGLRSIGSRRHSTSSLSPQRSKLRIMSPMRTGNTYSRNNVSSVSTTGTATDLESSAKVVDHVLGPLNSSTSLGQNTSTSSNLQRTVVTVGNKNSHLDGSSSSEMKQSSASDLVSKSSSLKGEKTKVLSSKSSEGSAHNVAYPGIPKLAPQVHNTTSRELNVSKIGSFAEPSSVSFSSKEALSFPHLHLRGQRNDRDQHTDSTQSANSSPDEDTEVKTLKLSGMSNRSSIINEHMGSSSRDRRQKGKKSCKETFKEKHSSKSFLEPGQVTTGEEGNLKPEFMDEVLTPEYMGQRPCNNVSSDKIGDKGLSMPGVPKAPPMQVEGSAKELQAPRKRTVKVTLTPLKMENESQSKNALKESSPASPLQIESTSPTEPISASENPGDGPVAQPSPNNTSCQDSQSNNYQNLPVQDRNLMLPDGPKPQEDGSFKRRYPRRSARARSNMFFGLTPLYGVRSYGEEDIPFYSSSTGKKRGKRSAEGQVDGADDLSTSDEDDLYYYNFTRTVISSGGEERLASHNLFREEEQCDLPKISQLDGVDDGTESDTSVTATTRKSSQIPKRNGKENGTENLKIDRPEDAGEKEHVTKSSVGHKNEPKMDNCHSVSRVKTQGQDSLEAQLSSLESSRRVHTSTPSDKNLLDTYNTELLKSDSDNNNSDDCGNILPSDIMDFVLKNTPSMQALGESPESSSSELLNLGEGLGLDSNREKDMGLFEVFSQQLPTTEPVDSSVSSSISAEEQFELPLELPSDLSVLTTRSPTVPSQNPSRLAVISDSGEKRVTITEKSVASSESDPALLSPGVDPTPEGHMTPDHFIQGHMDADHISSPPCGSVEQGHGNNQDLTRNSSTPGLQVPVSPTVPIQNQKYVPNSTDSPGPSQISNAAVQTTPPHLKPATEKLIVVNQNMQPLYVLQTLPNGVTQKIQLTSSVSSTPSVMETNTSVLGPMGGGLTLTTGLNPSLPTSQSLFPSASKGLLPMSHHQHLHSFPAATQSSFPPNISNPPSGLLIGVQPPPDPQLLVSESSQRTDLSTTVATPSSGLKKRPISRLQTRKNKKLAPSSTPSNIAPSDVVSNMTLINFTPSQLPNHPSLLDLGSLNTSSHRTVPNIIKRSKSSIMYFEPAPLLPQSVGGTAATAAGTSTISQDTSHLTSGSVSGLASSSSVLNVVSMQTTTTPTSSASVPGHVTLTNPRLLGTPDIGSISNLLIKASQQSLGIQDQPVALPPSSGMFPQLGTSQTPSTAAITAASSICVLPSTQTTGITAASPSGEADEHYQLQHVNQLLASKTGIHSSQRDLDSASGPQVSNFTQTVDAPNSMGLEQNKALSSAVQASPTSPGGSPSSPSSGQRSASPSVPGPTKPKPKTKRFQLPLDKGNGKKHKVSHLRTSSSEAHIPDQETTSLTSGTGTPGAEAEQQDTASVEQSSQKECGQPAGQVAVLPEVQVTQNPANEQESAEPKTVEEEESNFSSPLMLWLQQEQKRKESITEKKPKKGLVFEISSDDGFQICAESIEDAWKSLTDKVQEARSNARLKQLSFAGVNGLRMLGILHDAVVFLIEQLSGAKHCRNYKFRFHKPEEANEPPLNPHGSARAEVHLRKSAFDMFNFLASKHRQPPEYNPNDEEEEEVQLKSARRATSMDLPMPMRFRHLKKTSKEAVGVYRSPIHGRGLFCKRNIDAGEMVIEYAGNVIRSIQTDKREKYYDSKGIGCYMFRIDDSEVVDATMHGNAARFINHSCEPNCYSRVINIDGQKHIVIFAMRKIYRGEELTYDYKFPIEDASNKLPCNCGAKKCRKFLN
# Out of some 290,000 compounds screened, about 110 (0.038%) were called active. Inconclusive means that the source gave no clear call. Such entries were picked first, then a sample of the others. Calls come from the whole dose curve; as a rule, active = well fitted inhibition curve with a large enough effect in the polarisation, with a control signal flat (not every such curve was filed as active); inconclusive = small, poorly fitted or top-dose-only effect, or effect the other way, or a change in a side signal; inactive = no such curve, though single readings can be large or run the other way; the % refers to the polarisation. Potencies beside an inconclusive call are fits to weak or partial responses and may not hold up. “Side channel” marks fits to a control or component signal instead of the main read-out.
# Molecular target: Histone-lysine N-methyltransferase 2A (Homo sapiens) (UniProt Q03164)
# Experiment: qHTS Fluorescence Polarization Assay for Inhibitors of MLL CXXC domain - DNA interaction
# Conditions: MLL-CXXC / FITC-HOXA9 DNA fluorescence polarization; series mostly up to 115 µM
# Method in brief: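 Fluorescence polarization: 7 uM MLL-CXXC (stock) preincubated 5 min with compounds, then 50 nM fluorescein-HOX-A9 DNA (stock) added; 30 min ambient. Buffer 50 mM Tris-HCl pH 7.5, 50 mM NaCl, 1 mM DTT, 0.05% BSA.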
# Potency is the fitted concentration of half-maximal effect.
row,Structure (SMILES),Potency
1,Cc1oc(C)c2c(=O)ccc3c(c12)OC(N)=C(C#N)C3c1ccc(F)cc1 (configuration not stated),"inconclusive: 31.6 µM [fluorescent, side channel, partial curve]"
2,COCCNc1ncnc2c1cnn2Cc1ccccc1Cl,"inconclusive: 11.2 µM [inhibitor, single point]"
3,Cc1ccc(S(=O)(=O)N2CCN(C(=O)CN3CCCC3)C2)cc1,inactive
4,CN(C)c1ccc(C(=C2C=CC(=[N+](C)C)C=C2)c2ccccc2)cc1,inactive
5,COc1ccc([N+](=O)[O-])cc1NC(=O)C(C)Sc1nc(C)c(C)c(C)n1 (configuration not stated),inactive
6,CCN(CC(=O)Nc1ccccc1C(F)(F)F)C(=O)c1ccc(=O)n(Cc2ccccc2)n1,"inconclusive: 14.1 µM [inhibitor, single point]"
7,O=C(NNC(=O)C1CC(c2cccs2)=NO1)Nc1ccccc1 (configuration not stated),"inconclusive: 14.1 µM [quencher, side channel, single point]"
8,CCCOc1ccc(/C(O)=C2/C(=O)C(=O)N(c3ccccn3)C2c2ccc(OC)cc2)cc1C (configuration not stated),"inconclusive: 1.12 µM [fluorescent, side channel, full curve]"
9,Cc1ccc(S(=O)(=O)Cc2ccc(C(=O)O)o2)cc1,inactive
10,CC(C)C[C@H](NC(=O)C1CCC(CNC(=O)[C@@H]2CCCN2C(=O)OC(C)(C)C)CC1)C(=O)O (some centres not stated),"inconclusive: 1.41 µM [fluorescent, side channel, full curve, poor fit]"
11,CN1CC=C2C(C#N)=C(N)C(C#N)(C#N)C(CCc3ccccc3)C2C1 (configuration not stated),"inconclusive: 31.6 µM [fluorescent, side channel, single point]"
12,COc1cc(/C=C2/C(=O)c3cccc([N+](=O)[O-])c3C2=O)c(Br)cc1O,active: 28.2 µM
13,Cc1cc(N=Nc2ccc(C)c(N=Nc3cc(C)c(N)cc3N)c2)c(N)cc1N,"inconclusive: 31.6 µM [quencher, side channel, partial curve]"
14,O=C(Cn1cnc2ccccc2c1=O)c1ccc2ccccc2c1,inactive
15,CCCCn1nc(-c2ccccc2)c2nc3ccccc3nc21,"inconclusive: 63.1 µM [fluorescent, side channel, single point]"
16,Cc1ccc(CNC(=O)c2c(-c3ccccc3Cl)noc2C)cc1,"inconclusive: 14.1 µM [inhibitor, single point]"
17,Cc1ccc(-c2ccc(/C=N\NC(=O)c3cc4c(ccc5ccccc54)o3)o2)cc1[N+](=O)[O-],inactive
18,Cc1ccc(S(=O)(=O)N2CCCN(C)CC2)cc1,"inconclusive: 89.1 µM [fluorescent, side channel, single point]"
19,CC(=O)c1ccc(N2CCN(C(=S)Nc3cccc(F)c3)CC2)cc1,"inconclusive: 56.2 µM [quencher, side channel, single point]"
20,CC1CC(C)CN(C(=O)c2cc3c(=O)n4ccccc4nc3s2)C1 (configuration not stated),inactive
21,Cc1[nH]c(=S)c(C#N)c2c1CCCC2,inactive

row,Structure (SMILES),Potency
1,COc1ccc(/C=C2/SC(=S)NC2=O)cc1OCc1ccccc1,"inconclusive: 44.7 µM [inhibitor, partial curve]"
2,C=CCN1C(=O)/C(=C\c2cc(Br)c(OCc3ccccn3)c(OC)c2)SC1=S,"inconclusive: 10 µM [fluorescent, side channel, single point]"
3,Cc1cc(C)c2c(=O)n(CC(=O)Nc3cccc(F)c3)sc2n1,inactive
4,Cc1nc(NC(=O)CSc2nnc(-c3ccncc3)n2C)sc1C,"inconclusive: 31.6 µM [fluorescent, side channel, single point]"
5,O=C(Nc1nc(-c2ccc(S(=O)(=O)N3CCCCCC3)cc2)cs1)c1cccs1,inactive
6,COc1ccc(NC(=O)CSc2nc3ccccc3c(=O)n2CCNC(C)=O)cc1,"inconclusive: 70.8 µM [fluorescent, side channel, single point]"
7,CC1=CC(=C(C#N)C#N)C=C(C)N1Cc1ccc(Cl)cc1,"inconclusive: 31.6 µM [fluorescent, side channel, partial curve]"
8,O=C(CSc1ccccn1)Nc1nonc1[N+](=O)[O-],"inconclusive: 31.6 µM [fluorescent, side channel, partial curve]"
9,O=C(CSc1nc2ccccc2c(=O)n1-c1ccccc1)NCc1ccc2c(c1)OCO2,"inconclusive: 3.55 µM [inhibitor, partial curve]"
10,Cc1ccc(-c2[nH]ncc2C(=O)c2cccc(F)c2)c(O)c1,"inconclusive: 44.7 µM [fluorescent, side channel, partial curve]"
11,CC1C(=O)CC(c2ccco2)NC1c1ccco1 (configuration not stated),"inconclusive: 35.5 µM [inhibitor, partial curve, poor fit]"
12,CCn1c(C)nc2cc(C(N)=O)ccc21,"inconclusive: 39.8 µM [fluorescent, side channel, single point]"
13,COc1ccc(C(=O)n2ncc(C#N)c2N)cc1,"inconclusive: 15.8 µM [fluorescent, side channel, full curve]"
14,c1ccc(-c2c(-c3ccccc3)n(Cc3ccco3)c3ncnc(NCCCn4ccnc4)c23)cc1,inactive
15,CC1(C)CC(=O)C2=C(C1)N(CCN1CCOCC1)C1=C(C(=O)CC(C)(C)C1)C2c1ccc(Cl)cc1,inactive
16,O=C1NC2(CCCCCC2)C(=O)N1Cc1ccccc1F,"inconclusive: 15.8 µM [inhibitor, single point]"
17,O=C(O)c1cc(=O)c2ccccc2[nH]1,"inconclusive: 50.1 µM [inhibitor, partial curve]"
18,COc1ccc(/C=C(/NC(=O)c2ccco2)C(=O)NCc2ccco2)cc1OC,"inconclusive: 14.1 µM [quencher, side channel, single point]"
19,COc1ccc(Cl)cc1NS(=O)(=O)c1ccc2c(c1)NC(=O)CCS2,"inconclusive: 70.8 µM [quencher, side channel, single point]"
20,Cc1ccc(SC[C@H](c2ccccc2)N2CCN(CCc3ccccc3)CCC2=O)cc1,inactive
21,Cc1ccc2nc(SCC(=O)NC(=O)NCc3ccco3)[nH]c2c1,inactive

row,Structure (SMILES),Potency
1,O=C(O)CSc1c2c(nc3cc(C(=O)NCCN4CCOCC4)ccc13)CCC2,inactive
2,CCCCOc1ccc(/C=c2\sc3ncnn3c2=O)cc1,"inconclusive: 28.2 µM [inhibitor, partial curve]"
3,N#C/C=C/C(=C\Nc1ccc(Cl)cc1)S(=O)(=O)c1ccccc1,"inconclusive: 14.1 µM [fluorescent, side channel, single point]"
4,CC(=O)C1=C(c2ccccc2)NC(=S)NC1c1ccc(O)c(O)c1 (configuration not stated),inactive
5,Cn1cccc1CNC(=S)Nc1cc(F)cc(F)c1,"inconclusive: 2 µM [fluorescent, side channel, full curve]"
6,O=C(Nc1cc2c(cc1C(=O)O)OCCCO2)c1ccc(C(F)(F)F)cc1,"inconclusive: 70.8 µM [fluorescent, side channel, single point]"
7,COc1ccc(N(C(C)=O)c2nc(C)cc(C)c2C#N)c(OC)c1,"inconclusive: 15.8 µM [quencher, side channel, single point]"
8,Cc1ccc(-c2n[nH]c(=S)c3ccccc23)cc1,"inconclusive: 31.6 µM [fluorescent, side channel, partial curve]"
9,CCOC(=O)/C=c1\s/c(=C\c2ccc(-c3ccccc3)cc2)c(=O)n1CC(=O)NCc1ccc2c(c1)OCO2,"inconclusive: 2.82 µM [fluorescent, side channel, full curve]"
10,C/C=C/C=C/[C@H]1Cc2cc(O)cc(O)c2O1,"inconclusive: 89.1 µM [inhibitor, single point]"
11,O=S(=O)(Nc1nc2ccccc2nc1-[n+]1cccc(N=C([O-])c2ccccc2Cl)c1)c1ccccc1,"inconclusive: 35.5 µM [fluorescent, side channel, partial curve]"
12,COc1cc(C(C)=O)ccc1OCC(=O)OCCCOC(=O)COc1ccc(C(C)=O)cc1OC,"inconclusive: 63.1 µM [quencher, side channel, single point]"
13,COC(=O)c1ccc(/C=N/NC(=O)c2ccc3nc[nH]c3c2)cc1,"inconclusive: 63.1 µM [fluorescent, side channel, partial curve]"
14,COc1ccc(NCc2cc(=O)[nH]c3ccccc23)cc1,inactive
15,CCOC(=O)/C(C#N)=C/c1c(N2CCN(c3ccccc3)CC2)nc2c(C)cccn2c1=O,"inconclusive: 70.8 µM [fluorescent, side channel, single point]"
16,COc1cc(C(=O)OCC(=O)Nc2ccc(C)cc2)cc(OC)c1OC,"inconclusive: 31.6 µM [fluorescent, side channel, partial curve]"
17,Cc1ccnc(SCC(N)=O)n1,"inconclusive: 15.8 µM [fluorescent, side channel, partial curve]"
18,CCN(CC)CCN(C(=O)CCS(=O)(=O)c1ccccc1)c1nc2cc(C)cc(C)c2s1,"inconclusive: 14.1 µM [fluorescent, side channel, single point]"
19,COc1cc(/C=C2\C=CC(=O)O2)cc(OC)c1,"inconclusive: 31.6 µM [fluorescent, side channel, partial curve]"
20,O=C(CCc1nc2sc3c(c2c(=O)[nH]1)CCCC3)NCCc1ccc(F)cc1,"inconclusive: 22.4 µM [fluorescent, side channel, partial curve]"

# A draw from above in order of molecular weight, smallest number first:
row,Structure (SMILES),Potency
17,Cc1ccnc(SCC(N)=O)n1,"inconclusive: 15.8 µM [fluorescent, side channel, partial curve]"
7,COc1ccc(N(C(C)=O)c2nc(C)cc(C)c2C#N)c(OC)c1,"inconclusive: 15.8 µM [quencher, side channel, single point]"
7,O=C(NNC(=O)C1CC(c2cccs2)=NO1)Nc1ccccc1 (configuration not stated),"inconclusive: 14.1 µM [quencher, side channel, single point]"
6,O=C(Nc1cc2c(cc1C(=O)O)OCCCO2)c1ccc(C(F)(F)F)cc1,"inconclusive: 70.8 µM [fluorescent, side channel, single point]"
9,CCOC(=O)/C=c1\s/c(=C\c2ccc(-c3ccccc3)cc2)c(=O)n1CC(=O)NCc1ccc2c(c1)OCO2,"inconclusive: 2.82 µM [fluorescent, side channel, full curve]"
